Patent EP1383793B1 (priority 2000, dated 2001)
Positions of bridges follow the written chain, without caps; N, C: chain ends. Residues, ends and D or L forms follow the SMILES beside them. *: point of attachment. Biotin = O=C1N[C@H]2[C@H](CS[C@H]2CCCCC(=O)*)N1

Experiment: Phage ELISA, background signal on non-fat milk (NFM)
Conditions: 405 nm

| Compound | Absorbance Values NFM |
| --- | --- |
| CC[C@H](C)[C@H](NC(=O)[C@H](CCC(=O)O)NC(=O)[C@@H](N)CCCCN)C(=O)N[C@@H](CCC(=O)O)C(=O)N[C@@H](C)C(=O)N[C@@H](CCC(=O)O)C(=O)N[C@@H](Cc1c[nH]c2ccccc12)C(=O)NCC(=O)N[C@@H](CCCNC(=N)N)C(=O)N[C@H](C(=O)N[C@@H](CCCNC(=N)N)C(=O)N[C@H]1CSSC[C@@H](C(=O)N[C@H](C(=O)NCC(=O)NCC(=O)N[C@@H](CCCCN)C(=O)N[C@@H](CCCCNC(=O)CCCC[C@@H]2SC[C@@H]3NC(=O)N[C@@H]32)C(N)=O)C(C)C)NC(=O)[C@H](CCCNC(=N)N)NC(=O)CNC(=O)[C@H](Cc2ccc(O)cc2)NC(=O)[C@H](C(C)C)NC(=O)[C@H](CC(C)C)NC1=O)C(C)C [Clone 20A4] (H-KEIEAEWGRVRCLVYGRCVGGKK(Biotin)-NH2; disulfide 12-18 (inferred); N-terminus assumed) | 0.15 |
| CC[C@H](C)[C@H](NC(=O)[C@H](C)NC(=O)[C@H](CC(=O)O)NC(=O)[C@H](Cc1ccc(O)cc1)NC(=O)[C@H](Cc1ccccc1)NC(=O)[C@H](CC(=O)O)NC(=O)[C@H](CCCCN)NC(=O)[C@H](Cc1ccc(O)cc1)NC(=O)[C@@H](N)CC(=O)O)C(=O)N[C@@H](CC(=O)O)C(=O)N[C@@H](CCC(N)=O)C(=O)N[C@@H](CC(C)C)C(=O)N[C@H](C(=O)N[C@@H](CCCNC(=N)N)C(=O)NCC(=O)N[C@@H](CO)C(=O)N[C@@H](C)C(=O)N[C@@H](CCCNC(=N)N)C(=O)N[C@@H](C)C(=O)NCC(=O)NCC(=O)N[C@H](C(=O)N[C@@H](CCCNC(=N)N)C(=O)N[C@@H](CC(=O)O)C(=O)N[C@@H](CCCCN)C(=O)N[C@@H](CCCCNC(=O)CCCC[C@@H]1SC[C@@H]2NC(=O)N[C@@H]21)C(N)=O)[C@@H](C)O)C(C)C [Clone 20E2] (H-DYKDFYDAIDQLVRGSARAGGTRDKK(Biotin)-NH2; N-terminus assumed) | 0.11 |
| CSCC[C@H](NC(=O)[C@@H](NC(=O)[C@H](CO)NC(=O)[C@H](CC(C)C)NC(=O)[C@H](CC(C)C)NC(=O)[C@H](C)NC(=O)[C@H](CO)NC(=O)[C@H](Cc1c[nH]c2ccccc12)NC(=O)[C@@H](N)CCCCN)C(C)C)C(=O)N[C@@H](CC(=O)O)C(=O)N[C@H](C(=O)NCC(=O)N[C@@H](Cc1ccccc1)C(=O)N[C@@H](Cc1ccc(O)cc1)C(=O)N[C@@H](C)C(=O)N[C@@H](Cc1c[nH]c2ccccc12)C(=O)N[C@@H](Cc1ccccc1)C(=O)N[C@@H](CC(=O)O)C(=O)N[C@@H](CC(=O)O)C(=O)N[C@@H](C)C(=O)N[C@H](C(=O)N[C@@H](CCCCN)C(=O)N[C@@H](CCCCNC(=O)CCCC[C@@H]1SC[C@@H]2NC(=O)N[C@@H]21)C(N)=O)C(C)C)[C@@H](C)O [Clone B8] (H-KWSALLSVMDTGFYAWFDDAVKK(Biotin)-NH2; N-terminus assumed) | 0.10 |
| CC(C)C[C@H](NC(=O)[C@H](Cc1c[nH]c2ccccc12)NC(=O)[C@@H](N)CCCCN)C(=O)N[C@@H](CC(=O)O)C(=O)N[C@@H](CCC(N)=O)C(=O)N[C@@H](CCC(=O)O)C(=O)N[C@@H](Cc1c[nH]c2ccccc12)C(=O)N[C@@H](C)C(=O)N[C@@H](Cc1c[nH]c2ccccc12)C(=O)N[C@H](C(=O)N[C@@H](CCC(N)=O)C(=O)N[C@H]1CSSC[C@@H](C(=O)N2CCC[C@H]2C(=O)N[C@@H](CO)C(=O)N[C@@H](CCCCN)C(=O)N[C@@H](CCCCNC(=O)CCCC[C@@H]2SC[C@@H]3NC(=O)N[C@@H]32)C(N)=O)NC(=O)CNC(=O)[C@H](CCCNC(=N)N)NC(=O)CNC(=O)[C@H](Cc2ccc(O)cc2)NC(=O)[C@H](C(C)C)NC(=O)[C@H](CCC(=O)O)NC1=O)C(C)C [Clone D8] (H-KWLDQEWAWVQCEVYGRGCPSKK(Biotin)-NH2; disulfide 12-19 (inferred); N-terminus assumed) | 0.09 |
| KSMFVAGSDRWPGYGVLADWLKK [Clone F2] | 0.09 |
